Data from patent publication US20240010735A1.
No constants are given. Whether binding was seen depends on the method and setting. Some results given as binding are weak or reduced against the parent protein; the word gives no strength.

Sequences of proteins named here, by UniProt entry; tags and fusion partners are left off. Residues count along the entry.
UniProt P54764, residues 29-209: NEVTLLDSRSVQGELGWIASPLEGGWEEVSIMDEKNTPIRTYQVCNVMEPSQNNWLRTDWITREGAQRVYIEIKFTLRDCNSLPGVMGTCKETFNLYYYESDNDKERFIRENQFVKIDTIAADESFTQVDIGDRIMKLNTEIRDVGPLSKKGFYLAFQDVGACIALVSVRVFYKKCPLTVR

Target: EphA4-Ligand Binding Domain (EphA4-LBD) (UniProt P54764)
Experiment: X-ray crystal structure of the antibody A-Fab/EphA4-LBD complex purified by gel filtration

B1: antibody A-Fab (Fab, V domains shown, not shown: a dimerising Fc or GST)
VH: QVQLKQSGPSLVQPSQSLSITCTVSGFSLTRYGVHWVRQSPGKGLEWLGVIWRGGSTDYNAAFMSRLSITKDNSKSQVFFKMNSLQADDTAIYYCAKESLFGVYYDYGYYSMDYWGQGTSVTVSS
VL: DIQMTQSPSSLSASLGERVSLTCRASQEISGYLSWLQQKPDGTIKRLIYAASTLDSGVPKRFSGSRSGSDYSLTISSLESEDFADYYCLQYASYPLTFGAGTKLELKR
binding: binds
